The source of these data is paper PMC10435456.

Sequences of proteins named here, by UniProt entry; tags and fusion partners are left off. A change or cut given only in a name is not applied to a line headed by its entry.
UniProt L7N686: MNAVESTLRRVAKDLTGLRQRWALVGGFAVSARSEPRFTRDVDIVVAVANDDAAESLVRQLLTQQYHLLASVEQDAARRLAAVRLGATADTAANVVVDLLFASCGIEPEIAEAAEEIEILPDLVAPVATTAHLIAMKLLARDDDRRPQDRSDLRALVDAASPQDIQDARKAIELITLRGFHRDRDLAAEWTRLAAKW
UniProt I6X8G2: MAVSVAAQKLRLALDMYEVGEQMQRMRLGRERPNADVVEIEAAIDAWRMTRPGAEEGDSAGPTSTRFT

Test [1] deals with MenT1 toxin (Rv0078A) of Mycobacterium tuberculosis (Mycobacterium tuberculosis H37Rv) (UniProt L7N686). Briefly: crystal structure; MenAT1 complex (MenT1α:MenA1:MenT1β), 1.44 Å; crystal from 0.2 M sodium fluoride, 0.1 M Bis-Tris propane pH 6.5, 20% w/v PEG 3350; both purified.
For test [2] the target is unchanged. The test is described as follows: SEC; both purified.

No constants are given. Whether binding was seen depends on the method and setting. Binding can be weak; no strength is given.

On to “MenA1 antitoxin (Rv0078B) of Mycobacterium tuberculosis (from UniProt I6X8G2)”, for which the binding entry in test [1] and in test [2] was “binds” throughout.
